{"sequences": {"note": "By UniProt entry, the sequences of proteins in these tests, tags left out. Where a name states a change or a piece, a line headed by the entry shows the natural chain unless it says otherwise.", "UniProt Q96RI1": "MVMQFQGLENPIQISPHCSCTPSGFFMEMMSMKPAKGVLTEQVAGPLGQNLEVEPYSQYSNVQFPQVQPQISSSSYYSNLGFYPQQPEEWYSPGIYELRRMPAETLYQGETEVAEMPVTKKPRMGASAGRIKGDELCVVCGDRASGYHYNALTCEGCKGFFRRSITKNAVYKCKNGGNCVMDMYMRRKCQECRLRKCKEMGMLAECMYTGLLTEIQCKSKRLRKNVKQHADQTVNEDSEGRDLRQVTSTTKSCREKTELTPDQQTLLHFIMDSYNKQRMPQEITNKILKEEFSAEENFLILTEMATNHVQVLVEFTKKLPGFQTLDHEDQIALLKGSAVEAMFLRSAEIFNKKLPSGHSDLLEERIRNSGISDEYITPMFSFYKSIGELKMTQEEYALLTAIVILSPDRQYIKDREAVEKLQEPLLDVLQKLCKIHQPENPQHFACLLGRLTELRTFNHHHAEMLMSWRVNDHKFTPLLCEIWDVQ"}, "source": "patent US10377717B2", "about": "“Farnesoid X receptor agonists and uses thereof” (Metacrine, Inc., priority 2015, dated 2019)", "target": "hFXR (Homo sapiens (Human), UniProt Q96RI1)", "assay": "In Vitro FXR Assay (PGL3), luciferase reporter in transfected CV-1 cells", "format": "cell-based", "conditions": "PGL3-ECRE*6-luc reporter, hFXR/hRXR, 18 hrs incubation", "experimental": "CV-1 cells were seeded at a density of 2,000,000 cells in a T175 flask with DMEM+10% charcoal double-stripped FBS and incubated at 37° C. in a 5% CO2 for 18 h (O/N).\nAfter 18 h of incubation, the medium in the T175 flask was changed with fresh DMEM+10% charcoal super-stripped serum.\nTo prepare the transfection reaction mixture, the transfection reagent (X-tremeGENE HP from Roche, Cat #06 366 236 001) was added in to a 1.5 mL microcentrifuge tube labelled “A” at a ratio of 1:3 (DNA in μg: transfection reagent in μL). OptiMEM medium (Life Technologies, Cat #31985-062) was added accordingly to provide a total volume of 1 mL. The transfection reaction mixture was then briefly vortexed and incubated at room temperature for 5 minutes.\nIn a separate 1.5 mL microcentrifuge tube labelled “B”, 100 μL OptiMEM and plasmids XPD90Gal pCMXhFXRfl, pCMXhRXRfl+PGL3-ECRE*6-luc+CMX-YFP in the ratio 2 μg: 2 μg:18 μg:3 μg were added. This microcentrifuge tube “B” was then briefly vortexed and incubated at room temperature for 5 minutes. […]\nAfter removing the plates from the incubator, the medium was flicked out of plate and 384 well plate was turned upside down onto paper towel. […] Luminescence counts were taken immediately using the Perkin Elmer Envision.\nThe ability of the compounds disclosed herein to […] FXR activity was quantified and the respective EC50 value was determined. […]", "note": "For at least one compound, name, drawing or mass did not settle the structure.", "data": [{"compound": "COC(=O)/C=C/c1ccnc(N(Cc2ccc(-c3ccc(N(C)C)nc3)cc2)C(=O)C2CCCCC2)c1", "note": "[Compound 5, (E)-Methyl 3-(2-(N-(4-(6-(dimethylamino)pyridin-3-yl)benzyl)cyclohexane-carboxamido)pyridin-4-yl)acrylate]", "values": [{"measurement": "Cmpd/Fex (ratio of the EC50 for the test compound relative to the EC50 of the Fexaramine control)", "value": "+++ (‘+++’ means Cmpd/Fex < 10)"}]}]}
